At least one structure is not confirmed: it was looked up by name or label, or the drawing left a doubt.
System: cAMP production
Assay: ICUE3 FRET biosensor, cAMP kinetics in live HEK 293 cells
Type: cell-based, human
Settings: forskolin (50 nM)
From the text: Detection of the Temporal Dynamics of cAMP Signaling in Living Cells. The binding of cAMP to Epac induces a conformational change that liberates the catalytic domain of Epac from intrasubunit allosteric inhibition (42). A chimeric protein (ICUE3) generated by fusing the N terminus of a truncated form of Epac to enhanced CFP (ECFP) and the C terminus of Epac to citrine, an improved version of yellow fluorescent protein (YFP), was produced as previously described (43). Sandwiching these conformationally responsive elements of Epac between a FRET pair (citrine and ECFP) enables cAMP production and degradation to be monitored by detecting changes in FRET. Therefore, changes in cAMP could be monitored in real time in single live cells. Experiments were performed as previously described (41). […] The ratios of cyan-to-yellow emissions were then calculated at different time points and normalized by dividing all of the ratios by the emission ratio just before stimulation, thereby setting the basal emission ratio to 1. […] The fluorescence intensities of ECFP before (Fda) and after (Fd) citrine photobleaching and the equation E=1−(Fda/Fd) were used to calculate the FRET efficiency.

C=C[C@@]1(C)CC(=O)[C@]2(O)[C@@]3(C)[C@@H](O)CCC(C)(C)[C@@H]3[C@H](O)[C@H](OC(C)=O)[C@@]2(C)O1 [forskolin]
ICUE3 emission ratio response compared with PTH(1-34): slower response

— US20120294871A1, “MODULATION OF GPCR-MEDIATED CAMP PRODUCTION THROUGH LRP6 AND ITS THERAPEUTIC APPLICATION” (THE JOHNS HOPKINS UNIVERSITY, priority 2011, published 2012)
